Article PMC13568704
Results are given in words; binding and its absence hold for the method and conditions named. In cells and extracts the contact can be indirect. A result given as binding can be weak or reduced; the word gives no strength. For some of these results: Sequences can lack the tags named with a protein. Values belong to the molecule of their own block, whether it stands above or below them.

Sequences of proteins named here, by UniProt entry; tags and fusion partners are left off. A change or cut given only in a name is not applied to a line headed by its entry. Residues count along the entry.
UniProt P20163, residues 18-657: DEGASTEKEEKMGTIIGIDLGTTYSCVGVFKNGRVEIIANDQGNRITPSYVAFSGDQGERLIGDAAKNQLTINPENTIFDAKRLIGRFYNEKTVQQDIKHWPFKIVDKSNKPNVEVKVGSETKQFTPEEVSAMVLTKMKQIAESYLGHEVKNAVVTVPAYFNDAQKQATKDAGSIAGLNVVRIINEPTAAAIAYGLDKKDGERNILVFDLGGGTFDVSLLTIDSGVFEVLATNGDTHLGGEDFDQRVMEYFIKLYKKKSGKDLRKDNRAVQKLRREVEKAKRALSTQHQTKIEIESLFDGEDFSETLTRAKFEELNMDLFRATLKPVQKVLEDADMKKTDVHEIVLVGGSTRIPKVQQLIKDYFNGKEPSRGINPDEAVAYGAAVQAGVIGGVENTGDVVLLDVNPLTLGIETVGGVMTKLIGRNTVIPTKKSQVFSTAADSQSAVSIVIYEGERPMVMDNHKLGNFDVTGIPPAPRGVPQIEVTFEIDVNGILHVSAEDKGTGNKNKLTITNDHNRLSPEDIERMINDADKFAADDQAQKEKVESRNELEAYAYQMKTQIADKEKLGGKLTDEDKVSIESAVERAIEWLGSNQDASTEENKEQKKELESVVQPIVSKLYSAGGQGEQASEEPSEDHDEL
UniProt Q93878: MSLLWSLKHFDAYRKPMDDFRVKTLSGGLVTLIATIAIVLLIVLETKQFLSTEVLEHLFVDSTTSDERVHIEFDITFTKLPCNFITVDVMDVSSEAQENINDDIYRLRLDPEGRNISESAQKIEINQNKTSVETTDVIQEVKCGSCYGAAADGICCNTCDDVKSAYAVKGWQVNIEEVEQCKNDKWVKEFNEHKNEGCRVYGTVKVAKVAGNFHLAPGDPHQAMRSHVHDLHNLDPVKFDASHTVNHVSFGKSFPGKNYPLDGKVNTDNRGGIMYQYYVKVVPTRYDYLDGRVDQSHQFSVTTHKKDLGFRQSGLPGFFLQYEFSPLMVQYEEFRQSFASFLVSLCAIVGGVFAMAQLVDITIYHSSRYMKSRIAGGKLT
UniProt G5EEW1: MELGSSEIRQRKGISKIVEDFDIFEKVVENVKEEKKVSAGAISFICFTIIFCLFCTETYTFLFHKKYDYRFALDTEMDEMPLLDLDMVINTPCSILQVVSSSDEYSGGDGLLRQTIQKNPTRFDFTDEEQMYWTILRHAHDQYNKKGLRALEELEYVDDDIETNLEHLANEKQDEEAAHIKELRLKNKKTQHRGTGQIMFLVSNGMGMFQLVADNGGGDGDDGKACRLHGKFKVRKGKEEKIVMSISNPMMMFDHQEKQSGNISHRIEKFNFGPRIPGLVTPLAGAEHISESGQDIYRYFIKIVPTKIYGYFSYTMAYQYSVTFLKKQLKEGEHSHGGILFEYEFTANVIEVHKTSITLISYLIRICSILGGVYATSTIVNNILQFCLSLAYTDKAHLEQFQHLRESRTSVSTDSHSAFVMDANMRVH
UniProt Q09499: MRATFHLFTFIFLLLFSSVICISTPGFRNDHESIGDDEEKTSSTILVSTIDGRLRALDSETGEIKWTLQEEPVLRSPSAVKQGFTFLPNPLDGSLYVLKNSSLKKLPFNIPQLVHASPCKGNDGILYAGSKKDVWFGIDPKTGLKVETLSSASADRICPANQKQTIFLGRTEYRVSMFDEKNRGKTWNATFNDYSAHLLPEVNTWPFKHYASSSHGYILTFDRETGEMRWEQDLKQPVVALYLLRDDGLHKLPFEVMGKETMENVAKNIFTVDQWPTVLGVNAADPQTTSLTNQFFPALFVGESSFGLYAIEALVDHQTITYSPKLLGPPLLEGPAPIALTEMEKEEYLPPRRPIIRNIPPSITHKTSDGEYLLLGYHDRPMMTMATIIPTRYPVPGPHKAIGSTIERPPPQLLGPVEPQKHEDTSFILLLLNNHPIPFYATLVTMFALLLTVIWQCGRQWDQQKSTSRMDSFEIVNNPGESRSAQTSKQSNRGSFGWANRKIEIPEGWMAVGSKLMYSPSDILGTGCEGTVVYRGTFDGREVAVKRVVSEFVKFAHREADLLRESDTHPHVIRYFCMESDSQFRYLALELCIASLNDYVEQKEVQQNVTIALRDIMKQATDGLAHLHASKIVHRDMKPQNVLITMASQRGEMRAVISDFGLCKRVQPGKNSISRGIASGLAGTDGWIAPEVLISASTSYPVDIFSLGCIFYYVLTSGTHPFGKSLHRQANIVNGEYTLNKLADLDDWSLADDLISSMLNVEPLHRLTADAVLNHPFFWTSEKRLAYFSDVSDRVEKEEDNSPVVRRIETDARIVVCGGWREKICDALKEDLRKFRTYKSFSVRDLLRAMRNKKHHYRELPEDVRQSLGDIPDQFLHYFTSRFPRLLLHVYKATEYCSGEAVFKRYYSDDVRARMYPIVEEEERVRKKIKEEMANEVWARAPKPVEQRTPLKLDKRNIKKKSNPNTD

What was measured:
HSP-4::Myc (C. elegans) = HSP-4::Myc (C. elegans) (UniProt P20163); experiment: co-IP; HEK293T co-transfected; RIPA lysates; anti-Myc gel beads overnight at 4°C; western blot; for HSP-4::Myc with IRE-1::HA with empty Flag vector, Flag::ERGI-2 or Flag::ERGI-3 co-expressed
[1] = biological target: Flag::ERGI-3 (C. elegans) (UniProt Q93878); experiment: co-IP; HEK293T; HSP-4::Myc, UNC-9::GFP and Flag::ERGI-2 or Flag::ERGI-3 expressed together (Fig 6G, 6H); precipitating antibody not given
[2] = biological target: Flag::ERGI-2 (C. elegans) (UniProt G5EEW1); experiment: as above
[3] = biological target: Flag::ERGI-3 (C. elegans) (UniProt Q93878); experiment: co-IP; HEK293T co-transfected; RIPA lysates; anti-FLAG M2 affinity gel overnight at 4°C; western blot
[4] = biological target: Flag::ERGI-2 (C. elegans) (UniProt G5EEW1); experiment: as above

- binding (HSP-4::Myc (C. elegans)): binds
Molecule: Flag::ERGI-2 (from UniProt G5EEW1)

- binding [1]: binds
- binding [2]: binds
- binding [3]: binds
- binding [4]: binds
Molecule: HSP-4::Myc (from UniProt P20163 18-657)

- binding (HSP-4::Myc (C. elegans)): binds
- binding [3]: no binding
- binding [4]: no binding
Molecule: IRE-1::HA (ER luminal region) (from UniProt Q09499) (domain or fragment)

- binding [1]: binds
- binding [2]: binds
B1: UNC-9::GFP (protein, UniProt O01393 1-386)
chain: MSMLLYYFASAVKSIQFHVDDDIIDKLNYYYTTAIITVFAILVSAKQYVGFPIQCWVPATFTEPMEQYTENYCWVQNTYFLPLHDYIPHNYAERENRQIGYYQWVPFVLALEALLFYVPTIVWRLLSWQSGIHVQSLVQMACDSRLLDLESRNRALQTIATNVEEALHVKHQVMSGNRLKLLNLIICTRSSGAAVTFLYISVKILYTVNIVGQIFLLNTFLGNRSKWYGLQVLNDLMNGREWEESGHFPRVTLCDFEVKVLGNVHRHTVQCVLMINMFNEKIFLFLWFWYFLLAGATLCSLFYWIYISVVPSRQLNFVGKYLTGIEGYKMVDSQSLRRFVFHFLRQDGVFLLRMVATHAGELPCYELAKTLWNNYCDNKEGKMHDV
